The text below walks through data of article PMC5994411.

For at least one entry, the source does not settle the construct or the ends of the probe. For some assays here: No signal at the amounts used counts as a negative. Where a protein sequence is shown, tags need not be part of it.

In data set [1] the target is T1, McMYB10 (MBP fusion) (UniProt J7H7H0).
T1 sequence (looked up, limits assumed): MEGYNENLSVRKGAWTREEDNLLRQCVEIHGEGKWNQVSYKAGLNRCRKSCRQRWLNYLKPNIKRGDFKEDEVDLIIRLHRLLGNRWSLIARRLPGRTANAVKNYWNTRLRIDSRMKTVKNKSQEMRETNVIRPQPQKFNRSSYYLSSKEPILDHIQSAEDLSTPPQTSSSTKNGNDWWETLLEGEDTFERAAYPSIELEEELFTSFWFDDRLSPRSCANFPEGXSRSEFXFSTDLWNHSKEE
The data set is described as follows: competition with a labelled probe. To be noted: 1000-fold mutant probe against biotin probe, no evidence of competition; LightShift Chemiluminescent EMSA Kit per manufacturer, about 10 ug purified McMYB10 per reaction; temperature not stated; recombinant protein; protein details: MBP (pMAL-C2X). (A gel shift assay detects complexes by their altered migration in electrophoresis.)

For data set [2], the target named is T1, McMYB10 (MBP fusion). The data set is described as follows: EMSA. As to conditions: unlabelled probe (10- to 1000-fold) competes; LightShift Chemiluminescent EMSA Kit per manufacturer, about 10 ug purified McMYB10 per reaction; temperature not stated; recombinant protein; protein details: MBP (pMAL-C2X); label: biotin (labelled probe), unlabelled as competitor.

“GCTCATCTCAAATTTTTGGGTGCCAATCCATGATTGGTTAGCTGG (double strand) [mProbe]”: the binding result with McMYB10 (MBP fusion) [1] is given as “no binding”. In the case of “GCTCCTCCCAAATTTTTGGGCAGTTATCCATGGGTGGTGCGCTGG (double strand) [proMcCOP1 Probe (MBS and Sp1)]”, the binding result with McMYB10 (MBP fusion) [2] is given as “binds”.
